Laboratory results: patent publication US12729225B2, “Non-canonical SWI/SNF complex and uses thereof” (Dana-Farber Cancer Institute, Inc., priority 2018, dated 2026)

B1: FIGNL1 (protein, UniProt Q6PIW4 1-674, looked up)
Fidgetin-like protein 1: MQTSSSRSVHLSEWQKNYFAITSGICTGPKADAYRAQILRIQYAWANSEISQVCATKLFKKYAEKYSAIIDSDNVESGLNNYAENILTLAGSQQTDSDKWQSGLSINNVFKMSSVQKMMQAGKKFKDSLLEPALASVVIHKEATVFDLPKFSVCGSSQESDSLPNSAHDRDRTQDFPESNRLKLLQNAQPPMVTNTARTCPTFSAPVGESATAKFHVTPLFGNVKKENHSSAKENIGLNVFLSNQSCFPAACENPQRKSFYGSGTIDALSNPILNKACSKTEDNGPKEDSSLPTFKTAKEQLWVDQQKKYHQPQRASGSSYGGVKKSLGASRSRGILGKFVPPIPKQDGGEQNGGMQCKPYGAGPTEPAHPVDERLKNLEPKMIELIMNEIMDHGPPVNWEDIAGVEFAKATIKEIVVWPMLRPDIFTGLRGPPKGILLFGPPGTGKTLIGKCIASQSGATFFSISASSLTSKWVGEGEKMVRALFAVARCQQPAVIFIDEIDSLLSQRGDGEHESSRRIKTEFLVQLDGATTSSEDRILVVGATNRPQEIDEAARRRLVKRLYIPLPEASARKQIVINLMSKEQCCLSEEEIEQIVQQSDAFSGADMTQLCREASLGPIRSLQTADIATITPDQVRPIAYIDFENAFRTVRPSVSPKDLELYENWNKTFGCGK
B2: HNRNPR (protein, UniProt O43390 2-633, looked up)
Heterogeneous nuclear …: ANQVNGNAVQLKEEEEPMDTSSVTHTEHYKTLIEAGLPQKVAERLDEIFQTGLVAYVDLDERAIDALREFNEEGALSVLQQFKESDLSHVQNKSAFLCGVMKTYRQREKQGSKVQESTKGPDEAKIKALLERTGYTLDVTTGQRKYGGPPPDSVYSGVQPGIGTEVFVGKIPRDLYEDELVPLFEKAGPIWDLRLMMDPLSGQNRGYAFITFCGKEAAQEAVKLCDSYEIRPGKHLGVCISVANNRLFVGSIPKNKTKENILEEFSKVTEGLVDVILYHQPDDKKKNRGFCFLEYEDHKSAAQARRRLMSGKVKVWGNVVTVEWADPVEEPDPEVMAKVKVLFVRNLATTVTEEILEKSFSEFGKLERVKKLKDYAFVHFEDRGAAVKAMDEMNGKEIEGEEIEIVLAKPPDKKRKERQAARQASRSTAYEDYYYHPPPRMPPPIRGRGRGGGRGGYGYPPDYYGYEDYYDDYYGYDYHDYRGGYEDPYYGYDDGYAVRGRGGGRGGRGAPPPPRGRGAPPPRGRAGYSQRGAPLGPPRGSRGGRGGPAQQQRGRGSRGSRGNRGGNVGGKRKADGYNQPDSKRRQTNNQQNWGSQPIAQQPLQQGGDYSGNYGYNNDNQEFYQDTYGQQWK
B3: HMGB3 (protein, UniProt O15347 1-200, looked up)
High mobility group protein B3: MAKGDPKKPKGKMSAYAFFVQTCREEHKKKNPEVPVNFAEFSKKCSERWKTMSGKEKSKFDEMAKADKVRYDREMKDYGPAKGGKKKKDPNAPKRPPSGFFLFCSEFRPKIKSTNPGISIGDVAKKLGEMWNNLNDSEKQPYITKAAKLKEKYEKDVADYKSKGKFDGAKGPAKVARKKVEEEDEEEEEEEEEEEEEEDE
B4: LEPRE1 (protein, UniProt Q32P28 23-736, looked up)
Prolyl 3-hydroxylase 1: EVESEAGWGMVTPDLLFAEGTAAYARGDWPGVVLSMERALRSRAALRALRLRCRTQCAADFPWELDPDWSPSPAQASGAAALRDLSFFGGLLRRAACLRRCLGPPAAHSLSEEMELEFRKRSPYNYLQVAYFKINKLEKAVAAAHTFFVGNPEHMEMQQNLDYYQTMSGVKEADFKDLETQPHMQEFRLGVRLYSEEQPQEAVPHLEAALQEYFVAYEECRALCEGPYDYDGYNYLEYNADLFQAITDHYIQVLNCKQNCVTELASHPSREKPFEDFLPSHYNYLQFAYYNIGNYTQAVECAKTYLLFFPNDEVMNQNLAYYAAMLGEEHTRSIGPRESAKEYRQRSLLEKELLFFAYDVFGIPFVDPDSWTPEEVIPKRLQEKQKSERETAVRISQEIGNLMKEIETLVEEKTKESLDVSRLTREGGPLLYEGISLTMNSKLLNGSQRVVMDGVISDHECQELQRLTNVAATSGDGYRGQTSPHTPNEKFYGVTVFKALKLGQEGKVPLQSAHLYYNVTEKVRRIMESYFRLDTPLYFSYSHLVCRTAIEEVQAERKDDSHPVHVDNCILNAETLVCVKEPPAYTFRDYSAILYLNGDFDGGNFYFTELDAKTVTAEVQPQCGRAVGFSSGTENPHGVKAVTRGQRCAIALWFTLDPRHSERDRVQADDLVKMLFSPEEMDLSQEQPLDAQQGPPEPAQESLSGSESKPKDEL
B5: SNX9 (protein, UniProt Q9Y5X1 1-595, looked up)
Sorting nexin-9: MATKARVMYDFAAEPGNNELTVNEGEIITITNPDVGGGWLEGRNIKGERGLVPTDYVEILPSDGKDQFSCGNSVADQAFLDSLSASTAQASSSAASNNHQVGSGNDPWSAWSASKSGNWESSEGWGAQPEGAGAQRNTNTPNNWDTAFGHPQAYQGPATGDDDDWDEDWDGPKSSSYFKDSESADAGGAQRGNSRASSSSMKIPLNKFPGFAKPGTEQYLLAKQLAKPKEKIPIIVGDYGPMWVYPTSTFDCVVADPRKGSKMYGLKSYIEYQLTPTNTNRSVNHRYKHFDWLYERLLVKFGSAIPIPSLPDKQVTGRFEEEFIKMRMERLQAWMTRMCRHPVISESEVFQQFLNFRDEKEWKTGKRKAERDELAGVMIFSTMEPEAPDLDLVEIEQKCEAVGKFTKAMDDGVKELLTVGQEHWKRCTGPLPKEYQKIGKALQSLATVFSSSGYQGETDLNDAITEAGKTYEEIASLVAEQPKKDLHFLMECNHEYKGFLGCFPDIIGTHKGAIEKVKESDKLVATSKITLQDKQNMVKRVSIMSYALQAEMNHFHSNRIYDYNSVIRLYLEQQVQFYETIAEKLRQALSRFPVM
B6: ILF3 (protein, UniProt Q12906 1-894, looked up)
Interleukin enhancer-binding …: MRPMRIFVNDDRHVMAKHSSVYPTQEELEAVQNMVSHTERALKAVSDWIDEQEKGSSEQAESDNMDVPPEDDSKEGAGEQKTEHMTRTLRGVMRVGLVAKGLLLKGDLDLELVLLCKEKPTTALLDKVADNLAIQLAAVTEDKYEILQSVDDAAIVIKNTKEPPLSLTIHLTSPVVREEMEKVLAGETLSVNDPPDVLDRQKCLAALASLRHAKWFQARANGLKSCVIVIRVLRDLCTRVPTWGPLRGWPLELLCEKSIGTANRPMGAGEALRRVLECLASGIVMPDGSGIYDPCEKEATDAIGHLDRQQREDITQSAQHALRLAAFGQLHKVLGMDPLPSKMPKKPKNENPVDYTVQIPPSTTYAITPMKRPMEEDGEEKSPSKKKKKIQKKEEKAEPPQAMNALMRLNQLKPGLQYKLVSQTGPVHAPIFTMSVEVDGNSFEASGPSKKTAKLHVAVKVLQDMGLPTGAEGRDSSKGEDSAEETEAKPAVVAPAPVVEAVSTPSAAFPSDATAEQGPILTKHGKNPVMELNEKRRGLKYELISETGGSHDKRFVMEVEVDGQKFQGAGSNKKVAKAYAALAALEKLFPDTPLALDANKKKRAPVPVRGGPKFAAKPHNPGFGMGGPMHNEVPPPPNLRGRGRGGSIRGRGRGRGFGGANHGGYMNAGAGYGSYGYGGNSATAGYSQFYSNGGHSGNASGGGGGGGGGSSGYGSYYQGDNYNSPVPPKHAGKKQPHGGQQKPSYGSGYQSHQGQQQSYNQSPYSNYGPPQGKQKGYNHGQGSYSYSNSYNSPGGGGGSDYNYESKFNYSGSGGRSGGNSYGSGGASYNPGSHGGYGGGSGGGSSYQGKQGGYSQSNYNSPGSGQNYSGPPSSYQSSQGGYGRNADHSMNYQYR
B7: SRSF10 (protein, UniProt O75494 1-262, looked up)
Serine/arginine-rich splicing …: MSRYLRPPNTSLFVRNVADDTRSEDLRREFGRYGPIVDVYVPLDFYTRRPRGFAYVQFEDVRDAEDALHNLDRKWICGRQIEIQFAQGDRKTPNQMKAKEGRNVYSSSRYDDYDRYRRSRSRSYERRRSRSRSFDYNYRRSYSPRNSRPTGRPRRSRSHSDNDRFKHRNRSFSRSKSNSRSRSKSQPKKEMKAKSRSRSASHTKTRGTSKTDSKTHYKSGSRYEKESRKKEPPRSKSQSRSQSRSRSKSRSRSWTSPKSSGH

System: mSWI/SNF complexes
Experiment: mSWI/SNF complex purification with HA-tagged baits and mass spectrometry (peptide counts)
Design: species or system human
Details: 293_HA-BRD7 bait purification, mass spectrometry; for Total: total peptide count per identified protein; for Unique: unique peptide count per identified protein

Molecule | Total | Unique
B1 | 1 | 1
B2 | 1 | 1
B3 | 1 | 1
B4 | 1 | 1
B5 | 1 | 1
B6 | 1 | 1
B7 | 1 | 1
